This note sets out measurements from PMC7819943, “Rice protein-binding microarrays: a tool to detect cis-acting elements near promoter regions in rice”.

The other results are listed elsewhere or left out.

The assay has as its target T1, OsSMF1 (Oryza sativa, UniProt Q6ZLB0 1-436).
T1 sequence: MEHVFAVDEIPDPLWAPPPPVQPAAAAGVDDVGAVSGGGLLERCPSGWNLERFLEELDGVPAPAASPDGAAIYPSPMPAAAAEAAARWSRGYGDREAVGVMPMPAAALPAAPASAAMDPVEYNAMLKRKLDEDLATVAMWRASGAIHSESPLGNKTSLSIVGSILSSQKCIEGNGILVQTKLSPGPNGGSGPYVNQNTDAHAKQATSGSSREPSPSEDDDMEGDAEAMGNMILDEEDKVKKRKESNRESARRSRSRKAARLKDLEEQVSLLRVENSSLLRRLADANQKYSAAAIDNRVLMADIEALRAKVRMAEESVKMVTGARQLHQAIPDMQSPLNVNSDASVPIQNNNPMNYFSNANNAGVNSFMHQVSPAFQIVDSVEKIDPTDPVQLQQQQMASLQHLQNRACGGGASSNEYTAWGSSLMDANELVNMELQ
Nature of the assay: protein-binding microarray (RPBM); PBS, 2% BSA, 51.3 ng/ul salmon testes DNA, 50 uM zinc acetate, 200 nM TF, 25 C, 1 h; high values mean tight binding. To be noted: protein: recombinant; tags: N-terminal polyhistidine and DsRed monomer fusion (pET32a); chain copies: 2; label: CyDye5-dUTP incorporated in the synthesized complementary strand; 3' TTTTT single-stranded linker to array surface; dsDNA, one strand shown. The procedure, abridged: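 The binding signal for each feature is its fluorescence intensity in arbitrary units. An Axon 4000B scanner was used to read a custom Agilent array that had been made double-stranded with Cy5-dUTP primer extension, blocked with 2% BSA, incubated at 25 °C for 1 h with 200 nM protein in PBS, 2% BSA, salmon testes DNA and 50 µM zinc acetate, and washed. The protein was an N-terminal polyhistidine–DsRed transcription factor fusion from E. coli BL21-CodonPlus, purified on Ni–NTA.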
In the case of “GATGGGGTCCATGCACGCAAGGTCGCGCTGGCGCGGGCGGCGGAGTCACCTAGTGCAG”, the binding signal is 4760 fluorescence intensity (a.u.).

Consider “ATGGATGGGACTTGAGTGCGTGGCATAATTACATGCAAGCCGGAGTCACCTAGTGCAG”, for which the binding signal was 7640 fluorescence intensity (a.u.).

For the sequence “CTTTTGCTTTCCCGTCGTCTCGTTGCCGACGTCAGATCGACGGAGTCACCTAGTGCAG”, the binding signal is 6390 fluorescence intensity (a.u.).

As to “ACGCGGCCACGACGTGGTTTGGTTTGGTGGTTACGGCGCACGGAGTCACCTAGTGCAG”, the binding signal is 3300 fluorescence intensity (a.u.).

In the case of “TCGGGTCGGGCACAAGGCGATGCCGTCAGATTCCAGCAAGCGGAGTCACCTAGTGCAG”, the binding signal is 6020 fluorescence intensity (a.u.).

In the case of “CGGAGCAACATTCCACGTTGTTTTCTTACCAATTTGACTGCGGAGTCACCTAGTGCAG”, the binding signal is 3290 fluorescence intensity (a.u.).

Turning to “GAGAAGACAGAATGGGCCGTGTCACTGTGAGTCGACAGATCGGAGTCACCTAGTGCAG”, the binding signal was 3370 fluorescence intensity (a.u.).

As to “TGATCTTATTATGCATCATGACACGTACTGAGAGCAACATCGGAGTCACCTAGTGCAG”, the binding signal was 3320 fluorescence intensity (a.u.).

As for “GCCTCCACGCAATACACGTCAAATCAATTTAGGGTTTGCTCGGAGTCACCTAGTGCAG”, the binding signal was 7900 fluorescence intensity (a.u.).

As for “TAAGCGTCACGTCAGTGCCACGTTGAGAGACGAAAATCGGCGGAGTCACCTAGTGCAG”, the binding signal was 9460 fluorescence intensity (a.u.).

For “GGACGTTGGGCCAGCCGCAAGTGGATTGGACAATTTGGACCGGAGTCACCTAGTGCAG”, the binding signal is 28100 fluorescence intensity (a.u.).

“TCCAATCTCGGGTTCACATCCCCTGCCATCCAGCTCATACCGGAGTCACCTAGTGCAG”: the binding signal was 5230 fluorescence intensity (a.u.).

“ATCGGACGCCTCAGGTTGCGCCACGCGTCACGCAGCGGGGCGGAGTCACCTAGTGCAG”: the binding signal was 8870 fluorescence intensity (a.u.).

As for “TGGGGAGGGGAGGGAGAGGTGTCGTCAACAGGGAGGGAGGCGGAGTCACCTAGTGCAG”, the binding signal was 5790 fluorescence intensity (a.u.).

Consider “GGGTTGAGCACAGCAGTTTACAGTAGTGTTATTTCGTATTCGGAGTCACCTAGTGCAG”, for which the binding signal was 3550 fluorescence intensity (a.u.).

Take “TTGTGGCCTGCGTCCTCCTCCTGGACCTTCTCCCCTTCCCCGGAGTCACCTAGTGCAG”: the binding signal is 3180 fluorescence intensity (a.u.).

On to “CGAATGTATTGGAGCCATGCATGCCGTGGCCTTTGATGCACGGAGTCACCTAGTGCAG”, for which the binding signal was 32400 fluorescence intensity (a.u.).

For the sequence “CGTAGCAACCACAAGTTACACGCAGCAATTTGCACATCACCGGAGTCACCTAGTGCAG”, the binding signal was 3440 fluorescence intensity (a.u.).

Regarding “CTTCTACCTAGTTCTCCCTTAGCCCTTGTCTATACGCATCCGGAGTCACCTAGTGCAG”, the binding signal is 3870 fluorescence intensity (a.u.).

As for “GTGGTCTGATAAGTGATGATGATGTTTCAGAGGTTTATTCCGGAGTCACCTAGTGCAG”, the binding signal was 3930 fluorescence intensity (a.u.).

Consider “GATGCAGACGTGTTCTTGTCTCACCCTTCACCTGCATGATCGGAGTCACCTAGTGCAG”, for which the binding signal is 6110 fluorescence intensity (a.u.).

As to “TTGTCATGGAGTTCTACCCGTCTGACGTCGGCGCCCTCGCCGGAGTCACCTAGTGCAG”, the binding signal is 6180 fluorescence intensity (a.u.).

In the case of “CCCTGCAAGTTGCAATTAATGGTGAGTATGATCTGATCTGCGGAGTCACCTAGTGCAG”, the binding signal is 3210 fluorescence intensity (a.u.).

For the sequence “AAGCTAAGTAAAGTAACAACCTAATCAGATGACACAGCACCGGAGTCACCTAGTGCAG”, the binding signal is 6750 fluorescence intensity (a.u.).

In the case of “TTCAGGTGATGAGTCAATGGAGGAGGATGTCATGGAGATTCGGAGTCACCTAGTGCAG”, the binding signal is 4750 fluorescence intensity (a.u.).

As to “GCAACGTGTCCGGCCCGCCGGGGTACGTGTCATGTCCTCTCGGAGTCACCTAGTGCAG”, the binding signal was 7690 fluorescence intensity (a.u.).

“CGACCCGTTTCCTTCCAACACAAGGCACCTCCACGACGATCGGAGTCACCTAGTGCAG”: the binding signal is 3360 fluorescence intensity (a.u.).

For “CCAAGATGAACACCACCCTCCACGTCTTCCTATGAACGCACGGAGTCACCTAGTGCAG”, the binding signal was 6980 fluorescence intensity (a.u.).

As for “GAAGCAACATAAAACCCACCATATGGACCAACCGACCTCTCGGAGTCACCTAGTGCAG”, the binding signal was 3240 fluorescence intensity (a.u.).

In the case of “ACTTACACAGTAGTTACACCTCATTTACACCCCACTTACACGGAGTCACCTAGTGCAG”, the binding signal was 3480 fluorescence intensity (a.u.).

“CATCAACGGCGACCAGCTCCGGCGGCCACAACGGCAAGGGCGGAGTCACCTAGTGCAG”: the binding signal is 21700 fluorescence intensity (a.u.).

As for “GCGAGTTGTGAATAGCAATGTGTGCGTGTGCATTCGTGTGCGGAGTCACCTAGTGCAG”, the binding signal was 4460 fluorescence intensity (a.u.).

For the sequence “CAGACCGCGATCCATCGATTTCGAGGATAACTTTTATTTTCGGAGTCACCTAGTGCAG”, the binding signal was 3310 fluorescence intensity (a.u.).

Take “TGCTAGTGCAAATTCAATGGGAAACTAATGTATAACAGGACGGAGTCACCTAGTGCAG”: the binding signal was 25500 fluorescence intensity (a.u.).

For the sequence “TCCACCTGGGTTCAAATCCTAGATTTGACACGGGTGCTCGCGGAGTCACCTAGTGCAG”, the binding signal is 4830 fluorescence intensity (a.u.).

On to “TTTGCTGCCCGTACCTTTCGGTCCTTTGCGATGTCCACCACGGAGTCACCTAGTGCAG”, for which the binding signal is 4310 fluorescence intensity (a.u.).

For “TTAGAGGGAATATATATTTCACTGTGATTGCCACGGAGGACGGAGTCACCTAGTGCAG”, the binding signal was 5120 fluorescence intensity (a.u.).

For the sequence “TTTCGGCGAGTCAACATCTGTGACTCACGAATCGGACTTTCGGAGTCACCTAGTGCAG”, the binding signal was 6560 fluorescence intensity (a.u.).

Consider “ATGAGCTATAGTTAGGAGTCCGATCGTTTCACATTGACATCGGAGTCACCTAGTGCAG”, for which the binding signal is 18000 fluorescence intensity (a.u.).

Regarding “ACCAGTGGCCAAACGTGGCGTGGACGCAGCAAGCGACGGTCGGAGTCACCTAGTGCAG”, the binding signal was 3270 fluorescence intensity (a.u.).

For “GCGTAGTATGTCACGCTCACGCACACGTCCGCGCGACGCTCGGAGTCACCTAGTGCAG”, the binding signal is 4530 fluorescence intensity (a.u.).

As for “GTATCCTATCTGGTACAAAGTAAATCATGACTCAGGGCAGCGGAGTCACCTAGTGCAG”, the binding signal is 9160 fluorescence intensity (a.u.).
